## Percent effect of library compounds

By UniProt entry, the sequences of proteins in these tests, tags left out. Residues count along the entry.
UniProt Q8IDJ8, 1-583: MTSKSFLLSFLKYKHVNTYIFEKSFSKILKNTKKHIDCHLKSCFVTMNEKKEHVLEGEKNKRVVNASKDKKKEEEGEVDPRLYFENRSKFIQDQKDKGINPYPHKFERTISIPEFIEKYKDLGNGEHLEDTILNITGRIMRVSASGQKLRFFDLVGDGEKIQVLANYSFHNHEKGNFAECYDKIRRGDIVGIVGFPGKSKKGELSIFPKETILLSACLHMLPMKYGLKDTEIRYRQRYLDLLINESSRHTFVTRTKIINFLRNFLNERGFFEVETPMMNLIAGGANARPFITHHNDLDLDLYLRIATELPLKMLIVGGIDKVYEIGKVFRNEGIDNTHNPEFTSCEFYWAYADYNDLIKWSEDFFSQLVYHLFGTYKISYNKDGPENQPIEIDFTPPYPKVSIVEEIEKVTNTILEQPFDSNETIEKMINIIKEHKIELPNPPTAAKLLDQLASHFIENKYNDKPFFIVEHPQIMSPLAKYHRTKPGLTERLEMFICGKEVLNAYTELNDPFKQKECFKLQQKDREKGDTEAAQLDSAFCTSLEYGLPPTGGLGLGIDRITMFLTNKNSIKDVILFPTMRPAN
UniProt P9WFT3, whole entry: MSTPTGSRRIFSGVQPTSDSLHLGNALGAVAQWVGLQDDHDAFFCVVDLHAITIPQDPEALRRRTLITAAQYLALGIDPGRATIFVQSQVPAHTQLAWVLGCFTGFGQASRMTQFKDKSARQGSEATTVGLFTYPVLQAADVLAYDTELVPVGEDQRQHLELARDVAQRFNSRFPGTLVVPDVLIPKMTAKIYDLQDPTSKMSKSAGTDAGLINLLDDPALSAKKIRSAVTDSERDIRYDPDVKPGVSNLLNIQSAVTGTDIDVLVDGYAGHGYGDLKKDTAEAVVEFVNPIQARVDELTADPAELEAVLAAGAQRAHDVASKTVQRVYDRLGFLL

Measurements from “University of Dundee, Small-Polar-MMV Screening Library” (2021), ChEMBL document CHEMBL3988442.

The filed quantity is “Percent Effect” (%).
The controls that fix the scale are not given in the record; negative values are as filed.
Compounds were drawn at random from those tested, without regard to their results.

PfKRS1: 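Lysine-tRNA ligase, Plasmodium falciparum 3D7 (UniProt Q8IDJ8). Enzyme assay of the cytosolic lysyl-tRNA synthetase in 384-well plates, read by luminescence. Concentration: 30 µM. Higher reads as stronger inhibition, judged from the few compounds that gave an IC50. Of about 69,000 compounds tested this way, about 49 (0.071%) reached 50% or more in at least one test.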
MtTrpRS: 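Tryptophan-tRNA ligase, Mycobacterium tuberculosis (UniProt P9WFT3). Enzyme assay of tryptophanyl-tRNA synthetase; the read-out is not stated. Tested at 10 µM. Higher most likely means stronger inhibition; the record gives no direction and few retests gave an IC50. Size under these conditions: about 65,000 compounds, about 64 of them at 50% or above in at least one test.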

- CN1CCCN(CCCNC2CCc3cc4c(cc32)OCCO4)CC1 (stereo unspecified) | PfKRS1: 2.93%; MtTrpRS: -1.852%
- Cc1nc(C)n(CC2CCCN2Cc2nnc(-c3ccco3)o2)n1 (stereo unspecified) | PfKRS1: -7.594%; MtTrpRS: 2.245%
- CN1CC(=O)N(c2cccc(F)c2)CC12CCN(Cc1ccccn1)C2 (stereo unspecified) | PfKRS1: -0.902%; MtTrpRS: 3.426%
- Cc1cnc2n(c1=O)C(CC(=O)NCc1ccco1)CS2 (stereo unspecified) | PfKRS1: 5.477%; MtTrpRS: 3.375%
- CC(=O)N1CCOC(c2c(C(=O)O)sc3ccccc23)C1 (stereo unspecified) | PfKRS1: 0.5492%; MtTrpRS: -1.639%
- CN1CCN(Cc2ccncc2)C(=O)C12CCN(Cc1ccsc1)CC2 | PfKRS1: -2.273%; MtTrpRS: 0.4975%
- c1ccc(-c2cc(CN3CCCCCC3c3ccco3)on2)nc1 (stereo unspecified) | PfKRS1: 5.192%; MtTrpRS: 1.224%
- N[C@@H](Cc1c[nH]cn1)C(=O)N1CCC(Oc2ccc(Cl)cc2)CC1 | PfKRS1: -1.923%; MtTrpRS: -0.4405%
- COCCN(Cc1cccnc1)c1nc(C)nc2oc(C)nc12 | PfKRS1: 3.489%; MtTrpRS: -1.955%
- Cc1nc(CN2CCO[C@H]3CN(C(=O)c4cscn4)C[C@H]32)cs1 | PfKRS1: 3.069%; MtTrpRS: -3.761%
- Cc1cccc(CN2C[C@@H]3OCCN(S(=O)(=O)N(C)C)[C@@H]3C2)n1 | PfKRS1: 5.056%; MtTrpRS: -1.621%
- Cc1cccnc1CNCC1(O)CCCN(CC(C)(C)C)C1=O (stereo unspecified) | PfKRS1: 4.811%; MtTrpRS: 0.7101%
- O=C(c1ccc[nH]1)N1CCOCC2(CCN(C3CCOCC3)C2)C1 (stereo unspecified) | PfKRS1: 3.451%; MtTrpRS: -0.9682%
- Cc1noc([C@@]23CCO[C@@H]2CCN(C(=O)c2cc(C)c(C)s2)C3)n1 | PfKRS1: -0.2798%; MtTrpRS: -7.342%
- CCN(C)CC(=O)N1CCN(Cc2ccccc2)[C@@H]2CS(=O)(=O)C[C@@H]21 | PfKRS1: 3.277%; MtTrpRS: -5.103%
- CC(O)CN1CCC(CNCc2cccc(C(N)=O)c2)CC1 (stereo unspecified) | PfKRS1: 3.323%; MtTrpRS: -3.991%
- COCCN1CC(Nc2nc(C3CCCC3)nc3c2cnn3C)CC1=O (stereo unspecified) | PfKRS1: -3.23%; MtTrpRS: 16.31%
- CN1CCCC1c1ccc(C(=O)Nc2c3c(nn2C)CCC3)s1 (stereo unspecified) | PfKRS1: -2.853%; MtTrpRS: 1.447%
- Cc1nc(CN2CCOCC3(CCN(c4ncccn4)C3)C2)cs1 (stereo unspecified) | PfKRS1: 2.083%; MtTrpRS: 3.94%
- CN(C)Cc1ccnc(NS(=O)(=O)Cc2cccc(F)c2)c1 | PfKRS1: 7.318%; MtTrpRS: -1.537%
- O=S(=O)(Cc1ccccc1)NCC1CCN(c2cnccn2)CC1 | PfKRS1: -3.186%; MtTrpRS: -5.843%
- Cc1ccc(Cn2c(=O)[nH]c3cccnc3c2=O)cc1 | PfKRS1: 0.0967%; MtTrpRS: -3.233%
- CN(C)c1ncc(I)c(C2CCCN2S(C)(=O)=O)n1 (stereo unspecified) | PfKRS1: -2.236%; MtTrpRS: 21.07%
- Cc1cccc(NCCNc2ccc(C#N)cn2)n1 | PfKRS1: 0.5865%; MtTrpRS: 2.502%
- CC(C)c1nnsc1CNC(=O)C1CCN(C(=O)C2CC2)CC1 | PfKRS1: 2.483%; MtTrpRS: -3.765%
- CNc1cc(C2CCCN(Cc3ccccc3OCC(=O)O)C2)ccn1 (stereo unspecified) | PfKRS1: 1.559%
- O=C(NCCOc1ccc(Cl)cn1)Nc1ccccn1 | PfKRS1: 4.889%; MtTrpRS: -2.347%
- CC(C)Oc1cccc2c1c(NC(=O)CN(C)C)nn2CC(F)(F)F | PfKRS1: 5.256%; MtTrpRS: -2.719%